Drawing on article PMC7819943, “Rice protein-binding microarrays: a tool to detect cis-acting elements near promoter regions in rice”, this text covers binding signal for 42 sequences.

The list shows a part of the results.

This assay has as its target T1, OsSMF1 (Oryza sativa, UniProt Q6ZLB0 1-436).
T1 sequence: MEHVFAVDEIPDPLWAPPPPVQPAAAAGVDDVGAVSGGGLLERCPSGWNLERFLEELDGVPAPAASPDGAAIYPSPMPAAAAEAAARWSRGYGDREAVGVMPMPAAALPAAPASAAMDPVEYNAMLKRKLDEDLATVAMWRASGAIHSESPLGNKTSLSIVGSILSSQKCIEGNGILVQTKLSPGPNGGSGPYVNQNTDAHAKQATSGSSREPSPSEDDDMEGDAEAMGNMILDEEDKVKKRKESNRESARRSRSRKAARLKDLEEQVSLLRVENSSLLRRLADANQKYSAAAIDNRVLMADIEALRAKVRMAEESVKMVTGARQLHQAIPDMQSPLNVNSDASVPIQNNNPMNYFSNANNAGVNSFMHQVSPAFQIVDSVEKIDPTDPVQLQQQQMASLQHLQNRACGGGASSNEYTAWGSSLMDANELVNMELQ
Description: protein-binding microarray (RPBM); PBS, 2% BSA, 51.3 ng/ul salmon testes DNA, 50 uM zinc acetate, 200 nM TF, 25 C, 1 h; high values mean tight binding. Particulars: protein: recombinant; tags: N-terminal polyhistidine and DsRed monomer fusion (pET32a); chain copies: 2; label: CyDye5-dUTP incorporated in the synthesized complementary strand; 3' TTTTT single-stranded linker to array surface; dsDNA, one strand shown. The procedure, abridged: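 The binding signal for each feature is its fluorescence intensity in arbitrary units. An Axon 4000B scanner was used to read a custom Agilent array that had been made double-stranded with Cy5-dUTP primer extension, blocked with 2% BSA, incubated at 25 °C for 1 h with 200 nM protein in PBS, 2% BSA, salmon testes DNA and 50 µM zinc acetate, and washed. The protein was an N-terminal polyhistidine–DsRed transcription factor fusion from E. coli BL21-CodonPlus, purified on Ni–NTA.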
As for “ACTGGTTGACTGACTTGTAATAACGTCTGCCATCTCTCTCCGGAGTCACCTAGTGCAG”, the binding signal is 3890 fluorescence intensity (a.u.).
Consider “ATATAAGTCATTCTAACATTTTCCACATTCATTTTGATGTCGGAGTCACCTAGTGCAG”, for which the binding signal was 3530 fluorescence intensity (a.u.).
The result for “AGTATACGTGACGAGACATTACTGCTGTGTCGCGAGGCCCCGGAGTCACCTAGTGCAG” reads 4800 fluorescence intensity (a.u.); that for “GCTGTGGAGGAGGGCGTTGGCAGGGGCGACGTGGGAGTAGCGGAGTCACCTAGTGCAG”, 3330 fluorescence intensity (a.u.).
The result for “ATAAAGCTCACATGTCATCCTCCTCCTCTCTCTCCTTCTCCGGAGTCACCTAGTGCAG” reads 3370 fluorescence intensity (a.u.); that for “CTGCTCGGCGTCACCGTCATCGTCTACCTCCAGGAGAAGGCGGAGTCACCTAGTGCAG”, 3960 fluorescence intensity (a.u.).
For the sequence “TCAACTGCTGACTCTGTTGAGATCAAACTGAAAGTACTAGCGGAGTCACCTAGTGCAG”, the binding signal was 3830 fluorescence intensity (a.u.).
In the case of “TCCAAGTTCAACGATCATGTGCATGACAGTGAACCAACGGCGGAGTCACCTAGTGCAG”, the binding signal is 3340 fluorescence intensity (a.u.).
As to “TGCTTACTAGCTTAGGTAGGCAGCAGGCATTTCGTGGACACGGAGTCACCTAGTGCAG”, the binding signal was 3290 fluorescence intensity (a.u.).
The result for “TCTCCCGCGTCACACCGAACGCCAATCCCAGGCCGCCCACCGGAGTCACCTAGTGCAG” reads 3550 fluorescence intensity (a.u.).
The result for “TTTTCAATAATTCATTTATTCACACTTGTTAATTGGCAGACGGAGTCACCTAGTGCAG” reads 12800 fluorescence intensity (a.u.); that for “CCTCCTCAGCTAGTAGTAGCCGCCTCATCACGCGCCGCTCCGGAGTCACCTAGTGCAG”, 3970 fluorescence intensity (a.u.).
Then “TGGTTAGTTGGCTCCAGATAGTTAGGTTTTAGGGAGAGGTCGGAGTCACCTAGTGCAG”, with 3960 fluorescence intensity (a.u.).
On to “ACTAGTTTACAACCACACCAACATGTAGGCATGAACATGGCGGAGTCACCTAGTGCAG”, for which the binding signal was 22900 fluorescence intensity (a.u.).
As for “TGCTTGCTCGCATGCATGGCGTCATCTTCTATTGGCTGCACGGAGTCACCTAGTGCAG”, the binding signal was 10200 fluorescence intensity (a.u.).
Then “GTTTGATGAGTATTAGGCGTGACACATGACAAATCACAGACGGAGTCACCTAGTGCAG”, with 4260 fluorescence intensity (a.u.); and “CTCAGCGTCCCTCTCCCTGCACATTTACTCGTATGCACAGCGGAGTCACCTAGTGCAG”, with 3210 fluorescence intensity (a.u.).
Then “CATATCTTTGTCAGTGACAAGTGGATCCATGATTCATCGGCGGAGTCACCTAGTGCAG”, with 3650 fluorescence intensity (a.u.); and “CTTCTGTTGCACAGGTCACAAGCGTCCCCTTGATGTTACCCGGAGTCACCTAGTGCAG”, with 3160 fluorescence intensity (a.u.).
Take “GACGGCTGACCTAAACGTGCAGTGTCTGACACTACTTAAGCGGAGTCACCTAGTGCAG”: the binding signal was 3560 fluorescence intensity (a.u.).
Then “TGGAAAATTTTAAGTTATGCTAAATATATGTGTCATGCATCGGAGTCACCTAGTGCAG”, with 4360 fluorescence intensity (a.u.); and “CTGTTGCATACTTGGCTGACGTTGATGTTGTTGGAGTGCTCGGAGTCACCTAGTGCAG”, with 3210 fluorescence intensity (a.u.); and “GGCTAGAGAGGGATCAAGGGTAGGAGGGAGAGGAACGGATCGGAGTCACCTAGTGCAG”, with 3210 fluorescence intensity (a.u.).
Take “GTATAAAACGCGTGCACACTCACCCACACAGATACCATATCGGAGTCACCTAGTGCAG”: the binding signal was 4360 fluorescence intensity (a.u.).
Turning to “TGCTGGCTGAATACTACTACCATGTCATCTATAGCCATCACGGAGTCACCTAGTGCAG”, the binding signal is 3350 fluorescence intensity (a.u.).
With “TGCTGAGATCTTCATTTCTGAATACCTTGTGGAATCCGGACGGAGTCACCTAGTGCAG”, the binding signal was 25000 fluorescence intensity (a.u.).
Take “GCATCAGCGGCACAGGAACCTCAGAAGATCCGACAAAACGCGGAGTCACCTAGTGCAG”: the binding signal is 4490 fluorescence intensity (a.u.).
With “TCAAAAGAATCAACACACGTGGCCTTACATTCCTCTCAAACGGAGTCACCTAGTGCAG”, the binding signal is 7760 fluorescence intensity (a.u.).
Consider “TTGTAATCCGAAACAGATGGTTGTAATCTGAAACGGATTGCGGAGTCACCTAGTGCAG”, for which the binding signal is 19600 fluorescence intensity (a.u.).
Turning to “AAGATAAATGGTTAAACCTTATATGTGAAACCAGAGAAAACGGAGTCACCTAGTGCAG”, the binding signal was 21100 fluorescence intensity (a.u.).
Turning to “ATCAAAGAAACCTCCATGTCAACTAGCCTAGCTAGCTGTTCGGAGTCACCTAGTGCAG”, the binding signal is 3230 fluorescence intensity (a.u.).
As for “CCCACGCGTCCGCTGCCACTTGACGCCGCGCCACGCGCTCCGGAGTCACCTAGTGCAG”, the binding signal is 3560 fluorescence intensity (a.u.).
As for “ATGCTAACCAACTAAAATACTTTTCCATGTACCTTACAAGCGGAGTCACCTAGTGCAG”, the binding signal is 60000 fluorescence intensity (a.u.).
Consider “TCAAATGTGTGTACATATATGTCTTCAAATGTGTGTACATCGGAGTCACCTAGTGCAG”, for which the binding signal was 4950 fluorescence intensity (a.u.).
The result for “TTTTCATACGTGAACACTAGCCTGCCCCTTGAAACGAATGCGGAGTCACCTAGTGCAG” reads 9750 fluorescence intensity (a.u.); that for “TACGTTGAAACGTACCGATACTTTGCTAACATATACTCCACGGAGTCACCTAGTGCAG”, 10500 fluorescence intensity (a.u.); that for “AATGTAAGTCATTCTAGCATTTCTCATTAACATCAATATGCGGAGTCACCTAGTGCAG”, 3240 fluorescence intensity (a.u.).
“GAAACCTCGAGCGCTGCCACTGCCATCTCCGTGCCCATACCGGAGTCACCTAGTGCAG”: the binding signal is 3230 fluorescence intensity (a.u.).
For the sequence “TCTTTCATTACTCATGGAACGGTCCAGATCATCTCTGTGTCGGAGTCACCTAGTGCAG”, the binding signal was 5130 fluorescence intensity (a.u.).
In the case of “TTCGACATCCCCACCTCCCAAGTCACCTTAGGTCAAGGTGCGGAGTCACCTAGTGCAG”, the binding signal is 3280 fluorescence intensity (a.u.).
Then “AGGTCTAACACCCGGCACAGGTATAAGACCAGTAGTGCCACGGAGTCACCTAGTGCAG”, with 4280 fluorescence intensity (a.u.); and “TGAGTCGCTGCAAATAGAAGGTGTCATGGTATATGGGTGTCGGAGTCACCTAGTGCAG”, with 3500 fluorescence intensity (a.u.).
